According to paper PMC12572372:
Results are given in words; binding and its absence hold for the method and conditions named. In cells and extracts the contact can be indirect. Some results given as binding are weak or reduced against the parent protein; the word gives no strength. Sequences can lack the tags named with a protein.

By UniProt entry, the sequences of proteins in these tests, tags left out.
UniProt O14818: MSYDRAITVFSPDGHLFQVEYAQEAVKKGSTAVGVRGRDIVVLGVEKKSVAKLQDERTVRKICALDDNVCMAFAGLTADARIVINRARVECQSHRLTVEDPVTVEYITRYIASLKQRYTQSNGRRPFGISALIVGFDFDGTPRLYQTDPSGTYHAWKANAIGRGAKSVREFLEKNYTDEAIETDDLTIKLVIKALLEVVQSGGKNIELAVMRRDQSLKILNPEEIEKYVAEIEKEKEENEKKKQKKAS
UniProt P19838: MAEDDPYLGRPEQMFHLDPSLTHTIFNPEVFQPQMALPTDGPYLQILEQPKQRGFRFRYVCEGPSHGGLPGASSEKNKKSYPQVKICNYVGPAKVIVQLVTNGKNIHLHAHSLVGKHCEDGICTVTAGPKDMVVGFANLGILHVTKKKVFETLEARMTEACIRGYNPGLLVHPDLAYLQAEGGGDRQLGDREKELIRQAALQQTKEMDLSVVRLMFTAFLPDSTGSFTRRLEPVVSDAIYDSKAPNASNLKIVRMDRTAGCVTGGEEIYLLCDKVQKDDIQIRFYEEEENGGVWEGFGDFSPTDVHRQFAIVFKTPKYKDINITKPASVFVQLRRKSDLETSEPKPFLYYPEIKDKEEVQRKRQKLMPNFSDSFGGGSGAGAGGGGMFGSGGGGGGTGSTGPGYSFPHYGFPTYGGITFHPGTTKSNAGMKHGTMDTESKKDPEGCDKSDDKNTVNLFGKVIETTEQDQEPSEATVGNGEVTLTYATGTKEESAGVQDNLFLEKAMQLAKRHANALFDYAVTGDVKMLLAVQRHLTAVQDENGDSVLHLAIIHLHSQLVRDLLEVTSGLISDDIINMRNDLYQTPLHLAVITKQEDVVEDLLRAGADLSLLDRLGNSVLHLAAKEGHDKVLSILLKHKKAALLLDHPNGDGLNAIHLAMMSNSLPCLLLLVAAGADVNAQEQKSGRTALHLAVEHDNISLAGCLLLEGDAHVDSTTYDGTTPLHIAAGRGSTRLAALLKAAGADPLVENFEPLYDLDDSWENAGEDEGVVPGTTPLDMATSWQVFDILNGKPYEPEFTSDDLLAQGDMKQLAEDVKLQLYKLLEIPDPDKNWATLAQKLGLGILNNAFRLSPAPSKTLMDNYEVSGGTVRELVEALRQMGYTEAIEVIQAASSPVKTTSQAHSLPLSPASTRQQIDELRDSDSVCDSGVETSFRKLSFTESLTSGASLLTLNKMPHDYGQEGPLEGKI

How the values were obtained:
[1] = target: T1, FLAG-tagged human LZTR1 (Leucine zipper-like transcription regulator 1) (human) (UniProt Q8N653); experiment: co-IP; FLAG immunoprecipitation (Flag-tag Protein IP Assay Kit with magnetic beads) from HaCaT cells reconstituted with empty vector or FLAG-tagged human LZTR1; immunoblot for endogenous PSMA6, PSMA7 and RPS3
T1 sequence: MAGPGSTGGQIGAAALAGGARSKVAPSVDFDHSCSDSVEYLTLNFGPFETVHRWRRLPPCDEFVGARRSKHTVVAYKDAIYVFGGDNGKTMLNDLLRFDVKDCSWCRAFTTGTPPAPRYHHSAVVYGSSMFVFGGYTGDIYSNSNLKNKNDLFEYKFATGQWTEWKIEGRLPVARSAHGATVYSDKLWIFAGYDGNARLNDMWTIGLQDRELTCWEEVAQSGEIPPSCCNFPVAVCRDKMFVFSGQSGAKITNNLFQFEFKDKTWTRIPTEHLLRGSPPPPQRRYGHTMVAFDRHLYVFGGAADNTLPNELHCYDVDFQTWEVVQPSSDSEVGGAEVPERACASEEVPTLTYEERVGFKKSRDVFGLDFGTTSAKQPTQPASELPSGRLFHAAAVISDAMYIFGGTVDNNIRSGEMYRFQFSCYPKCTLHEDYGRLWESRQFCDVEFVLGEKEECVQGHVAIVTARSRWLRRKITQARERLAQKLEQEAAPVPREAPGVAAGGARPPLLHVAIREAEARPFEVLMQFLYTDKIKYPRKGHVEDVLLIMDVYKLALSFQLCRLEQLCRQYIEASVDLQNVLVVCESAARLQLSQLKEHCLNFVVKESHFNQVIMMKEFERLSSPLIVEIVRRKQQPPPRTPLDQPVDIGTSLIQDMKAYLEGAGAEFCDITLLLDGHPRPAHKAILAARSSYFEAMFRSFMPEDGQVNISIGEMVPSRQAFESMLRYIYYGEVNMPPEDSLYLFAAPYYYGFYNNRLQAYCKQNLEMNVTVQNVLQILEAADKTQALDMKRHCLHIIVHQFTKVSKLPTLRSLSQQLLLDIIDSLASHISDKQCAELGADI

[2] = target: T1, FLAG-tagged human LZTR1 (Leucine zipper-like transcription regulator 1) (human); experiment: co-IP; Supplementary Fig. S14c, d; set-up not told in the text shown; the methods describe only anti-NF-κB1 and FLAG immunoprecipitations from HaCaT lysates (NP-40 lysis buffer)

| binding [1] | binding [2] | Substance |
| --- | --- | --- |
| binds | – | PSMA7 (proteasome 20S subunit alpha) (from UniProt O14818 1-248) |
| – | no binding | NF-κB1 p105 (precursor form) (from UniProt P19838 1-968) |
